In US20220054630A1:
No constants are given. Whether binding was seen depends on the method and setting. Some binding calls cover weakened binding; strength is not graded here.

Tests used:
[1] = target: sE2 pairwise combination of designs ΔHVR1 and H445P (Hepatitis C virus isolate H77C) (UniProt P27958); experiment: BLI (Octet RED96), His6-tagged sE2 on Ni-NTA biosensors, CD81-LEL in solution
[2] = target: sE2 pairwise combination of designs H445P and Y632NS (Hepatitis C virus isolate H77C) (UniProt P27958); experiment: as above

B1: CD81 large extracellular loop (LEL) (receptor)
chain: FVNKDQIAKDVKQFYDQALQQAVVDDDANNAKAVVKTFHETLDCCGSSTLTALTTSVLKNNLCPSGSNIISNLFKEDCHQKIDDLFSGK
B1 was tested, and the binding [1] was “binds” and the binding [2] was “binds”.
